Measurements from the supplement of paper PMC12823440, “Inhibitors supercharge kinase turnover through native proteolytic circuits” (Nature, 2025).
Counter-ions that a name gives are not always drawn. The list shows a part of the results. Hit calls seldom repeat between salt and free forms of one compound.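 In K562 cells expressing nanoluciferase-fused kinases, luminescence was recorded at 4 h intervals between 2 and 18 h, normalized as percent of control with DMSO at 100% and a positive control at 0%. A significant (2 sigma) signal drop marks a time point as decreased. The authors' rule for a hit is not shown and takes in more than the number of time points.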

The chains behind the UniProt entries cited, without tags or fusion partners. Where a name states a change or a piece, a line headed by the entry shows the natural chain unless it says otherwise.
UniProt Q8IWU2: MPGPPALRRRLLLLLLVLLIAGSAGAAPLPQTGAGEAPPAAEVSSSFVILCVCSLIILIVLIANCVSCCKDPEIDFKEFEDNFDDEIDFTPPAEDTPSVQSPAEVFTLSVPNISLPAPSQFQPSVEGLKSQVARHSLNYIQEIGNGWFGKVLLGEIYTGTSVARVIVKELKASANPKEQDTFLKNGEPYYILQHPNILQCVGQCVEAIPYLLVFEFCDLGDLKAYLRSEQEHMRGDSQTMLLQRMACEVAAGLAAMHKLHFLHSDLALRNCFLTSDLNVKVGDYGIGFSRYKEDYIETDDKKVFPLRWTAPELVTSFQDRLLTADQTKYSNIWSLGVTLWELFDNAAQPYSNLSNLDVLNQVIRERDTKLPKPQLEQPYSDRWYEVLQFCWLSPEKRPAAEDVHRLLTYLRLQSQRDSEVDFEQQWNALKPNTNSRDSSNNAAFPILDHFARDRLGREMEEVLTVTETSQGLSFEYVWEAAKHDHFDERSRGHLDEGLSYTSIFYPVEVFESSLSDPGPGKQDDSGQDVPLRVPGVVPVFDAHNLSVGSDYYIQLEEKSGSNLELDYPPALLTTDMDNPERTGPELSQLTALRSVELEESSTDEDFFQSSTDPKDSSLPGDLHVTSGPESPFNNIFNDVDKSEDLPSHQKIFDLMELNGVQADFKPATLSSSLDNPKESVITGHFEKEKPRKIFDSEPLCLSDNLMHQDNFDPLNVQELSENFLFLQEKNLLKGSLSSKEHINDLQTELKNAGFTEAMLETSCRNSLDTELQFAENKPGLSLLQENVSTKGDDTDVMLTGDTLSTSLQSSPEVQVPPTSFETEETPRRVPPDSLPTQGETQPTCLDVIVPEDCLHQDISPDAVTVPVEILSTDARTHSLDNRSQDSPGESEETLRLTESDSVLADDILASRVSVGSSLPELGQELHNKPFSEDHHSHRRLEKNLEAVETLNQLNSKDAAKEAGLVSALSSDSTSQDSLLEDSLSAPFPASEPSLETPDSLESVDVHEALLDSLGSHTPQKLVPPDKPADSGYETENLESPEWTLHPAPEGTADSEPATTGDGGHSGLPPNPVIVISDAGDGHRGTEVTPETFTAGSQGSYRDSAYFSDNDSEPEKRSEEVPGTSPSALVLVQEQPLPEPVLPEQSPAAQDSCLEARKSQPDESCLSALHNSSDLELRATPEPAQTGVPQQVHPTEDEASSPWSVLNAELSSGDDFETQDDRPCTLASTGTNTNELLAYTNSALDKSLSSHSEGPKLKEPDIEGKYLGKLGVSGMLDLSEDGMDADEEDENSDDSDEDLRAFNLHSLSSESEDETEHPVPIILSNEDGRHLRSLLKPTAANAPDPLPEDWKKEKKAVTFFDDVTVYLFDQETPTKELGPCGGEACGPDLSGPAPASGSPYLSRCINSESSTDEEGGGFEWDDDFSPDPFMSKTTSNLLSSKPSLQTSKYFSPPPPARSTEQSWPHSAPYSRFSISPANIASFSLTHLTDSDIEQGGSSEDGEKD
UniProt P07948: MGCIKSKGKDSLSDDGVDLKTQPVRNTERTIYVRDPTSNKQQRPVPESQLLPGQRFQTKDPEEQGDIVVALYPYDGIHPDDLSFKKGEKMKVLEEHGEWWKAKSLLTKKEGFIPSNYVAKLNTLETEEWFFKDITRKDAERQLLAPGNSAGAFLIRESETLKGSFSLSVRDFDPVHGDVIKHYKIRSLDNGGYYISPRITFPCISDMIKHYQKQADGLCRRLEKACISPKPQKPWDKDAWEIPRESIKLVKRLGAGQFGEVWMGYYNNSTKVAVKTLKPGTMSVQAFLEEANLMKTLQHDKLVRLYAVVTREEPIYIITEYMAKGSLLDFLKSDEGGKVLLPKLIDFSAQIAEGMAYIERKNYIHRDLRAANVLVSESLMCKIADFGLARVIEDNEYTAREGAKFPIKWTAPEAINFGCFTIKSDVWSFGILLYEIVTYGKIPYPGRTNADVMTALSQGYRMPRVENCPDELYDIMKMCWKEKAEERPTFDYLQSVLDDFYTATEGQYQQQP
UniProt P28482, whole entry: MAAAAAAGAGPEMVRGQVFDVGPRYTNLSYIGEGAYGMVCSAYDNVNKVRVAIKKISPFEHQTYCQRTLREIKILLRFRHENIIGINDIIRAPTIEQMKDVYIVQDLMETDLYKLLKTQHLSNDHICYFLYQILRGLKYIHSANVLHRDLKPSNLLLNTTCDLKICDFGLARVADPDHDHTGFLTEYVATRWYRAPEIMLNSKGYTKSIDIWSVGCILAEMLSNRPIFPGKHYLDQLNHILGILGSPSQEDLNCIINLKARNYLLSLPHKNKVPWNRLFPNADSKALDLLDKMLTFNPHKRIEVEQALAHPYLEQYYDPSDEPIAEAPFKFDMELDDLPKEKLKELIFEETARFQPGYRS
UniProt Q9BUB5: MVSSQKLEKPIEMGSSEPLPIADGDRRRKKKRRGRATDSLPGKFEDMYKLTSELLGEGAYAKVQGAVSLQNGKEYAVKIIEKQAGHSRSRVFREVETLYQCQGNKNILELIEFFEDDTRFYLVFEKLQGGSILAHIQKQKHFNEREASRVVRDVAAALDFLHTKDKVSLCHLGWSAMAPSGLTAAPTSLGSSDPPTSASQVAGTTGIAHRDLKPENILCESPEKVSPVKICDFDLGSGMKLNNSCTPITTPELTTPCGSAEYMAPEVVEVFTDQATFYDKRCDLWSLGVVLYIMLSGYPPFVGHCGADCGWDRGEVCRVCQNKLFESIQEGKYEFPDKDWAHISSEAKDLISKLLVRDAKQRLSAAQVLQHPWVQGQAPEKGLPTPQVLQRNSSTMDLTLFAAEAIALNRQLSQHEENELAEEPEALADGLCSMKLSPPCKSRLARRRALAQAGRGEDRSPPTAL
UniProt Q16620, whole entry, looked up: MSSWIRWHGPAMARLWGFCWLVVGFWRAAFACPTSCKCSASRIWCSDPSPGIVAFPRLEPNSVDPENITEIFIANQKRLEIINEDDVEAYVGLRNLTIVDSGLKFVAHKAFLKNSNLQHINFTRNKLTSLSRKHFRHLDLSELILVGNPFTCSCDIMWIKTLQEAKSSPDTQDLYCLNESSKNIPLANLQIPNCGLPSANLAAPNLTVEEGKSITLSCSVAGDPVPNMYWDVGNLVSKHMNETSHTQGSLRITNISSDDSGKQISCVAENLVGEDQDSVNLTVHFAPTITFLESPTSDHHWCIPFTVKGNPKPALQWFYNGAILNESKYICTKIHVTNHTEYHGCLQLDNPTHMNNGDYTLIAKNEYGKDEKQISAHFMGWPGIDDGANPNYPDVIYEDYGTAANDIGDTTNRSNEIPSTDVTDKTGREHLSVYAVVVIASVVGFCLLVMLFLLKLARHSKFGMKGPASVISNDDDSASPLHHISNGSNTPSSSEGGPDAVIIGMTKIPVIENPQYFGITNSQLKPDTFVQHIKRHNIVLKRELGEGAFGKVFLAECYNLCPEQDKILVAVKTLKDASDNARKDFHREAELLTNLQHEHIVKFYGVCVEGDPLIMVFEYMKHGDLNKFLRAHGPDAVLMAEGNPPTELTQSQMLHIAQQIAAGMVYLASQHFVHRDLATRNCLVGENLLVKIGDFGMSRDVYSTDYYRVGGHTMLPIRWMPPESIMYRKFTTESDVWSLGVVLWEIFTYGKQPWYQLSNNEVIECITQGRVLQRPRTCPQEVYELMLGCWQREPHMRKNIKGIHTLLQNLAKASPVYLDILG
UniProt Q96KB5: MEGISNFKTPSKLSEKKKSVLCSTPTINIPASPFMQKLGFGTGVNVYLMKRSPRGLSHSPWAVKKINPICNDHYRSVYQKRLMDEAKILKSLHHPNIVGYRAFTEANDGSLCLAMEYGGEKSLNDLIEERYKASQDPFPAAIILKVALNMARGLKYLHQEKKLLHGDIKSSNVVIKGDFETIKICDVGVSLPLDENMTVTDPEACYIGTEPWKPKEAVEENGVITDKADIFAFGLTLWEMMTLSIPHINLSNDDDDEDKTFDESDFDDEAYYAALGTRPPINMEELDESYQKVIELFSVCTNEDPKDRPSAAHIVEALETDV
UniProt Q15118, whole entry, looked up: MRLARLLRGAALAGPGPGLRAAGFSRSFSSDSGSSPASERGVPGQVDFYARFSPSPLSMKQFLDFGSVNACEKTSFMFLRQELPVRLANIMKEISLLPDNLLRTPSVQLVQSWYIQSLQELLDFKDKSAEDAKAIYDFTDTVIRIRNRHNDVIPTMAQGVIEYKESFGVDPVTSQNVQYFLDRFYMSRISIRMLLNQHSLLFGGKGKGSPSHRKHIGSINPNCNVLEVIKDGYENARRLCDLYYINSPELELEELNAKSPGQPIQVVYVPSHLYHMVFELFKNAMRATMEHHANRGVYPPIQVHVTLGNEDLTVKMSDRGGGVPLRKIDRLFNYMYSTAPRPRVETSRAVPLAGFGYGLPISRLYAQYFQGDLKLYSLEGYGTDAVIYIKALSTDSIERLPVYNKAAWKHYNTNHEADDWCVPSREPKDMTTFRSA
UniProt P42356, whole entry, looked up: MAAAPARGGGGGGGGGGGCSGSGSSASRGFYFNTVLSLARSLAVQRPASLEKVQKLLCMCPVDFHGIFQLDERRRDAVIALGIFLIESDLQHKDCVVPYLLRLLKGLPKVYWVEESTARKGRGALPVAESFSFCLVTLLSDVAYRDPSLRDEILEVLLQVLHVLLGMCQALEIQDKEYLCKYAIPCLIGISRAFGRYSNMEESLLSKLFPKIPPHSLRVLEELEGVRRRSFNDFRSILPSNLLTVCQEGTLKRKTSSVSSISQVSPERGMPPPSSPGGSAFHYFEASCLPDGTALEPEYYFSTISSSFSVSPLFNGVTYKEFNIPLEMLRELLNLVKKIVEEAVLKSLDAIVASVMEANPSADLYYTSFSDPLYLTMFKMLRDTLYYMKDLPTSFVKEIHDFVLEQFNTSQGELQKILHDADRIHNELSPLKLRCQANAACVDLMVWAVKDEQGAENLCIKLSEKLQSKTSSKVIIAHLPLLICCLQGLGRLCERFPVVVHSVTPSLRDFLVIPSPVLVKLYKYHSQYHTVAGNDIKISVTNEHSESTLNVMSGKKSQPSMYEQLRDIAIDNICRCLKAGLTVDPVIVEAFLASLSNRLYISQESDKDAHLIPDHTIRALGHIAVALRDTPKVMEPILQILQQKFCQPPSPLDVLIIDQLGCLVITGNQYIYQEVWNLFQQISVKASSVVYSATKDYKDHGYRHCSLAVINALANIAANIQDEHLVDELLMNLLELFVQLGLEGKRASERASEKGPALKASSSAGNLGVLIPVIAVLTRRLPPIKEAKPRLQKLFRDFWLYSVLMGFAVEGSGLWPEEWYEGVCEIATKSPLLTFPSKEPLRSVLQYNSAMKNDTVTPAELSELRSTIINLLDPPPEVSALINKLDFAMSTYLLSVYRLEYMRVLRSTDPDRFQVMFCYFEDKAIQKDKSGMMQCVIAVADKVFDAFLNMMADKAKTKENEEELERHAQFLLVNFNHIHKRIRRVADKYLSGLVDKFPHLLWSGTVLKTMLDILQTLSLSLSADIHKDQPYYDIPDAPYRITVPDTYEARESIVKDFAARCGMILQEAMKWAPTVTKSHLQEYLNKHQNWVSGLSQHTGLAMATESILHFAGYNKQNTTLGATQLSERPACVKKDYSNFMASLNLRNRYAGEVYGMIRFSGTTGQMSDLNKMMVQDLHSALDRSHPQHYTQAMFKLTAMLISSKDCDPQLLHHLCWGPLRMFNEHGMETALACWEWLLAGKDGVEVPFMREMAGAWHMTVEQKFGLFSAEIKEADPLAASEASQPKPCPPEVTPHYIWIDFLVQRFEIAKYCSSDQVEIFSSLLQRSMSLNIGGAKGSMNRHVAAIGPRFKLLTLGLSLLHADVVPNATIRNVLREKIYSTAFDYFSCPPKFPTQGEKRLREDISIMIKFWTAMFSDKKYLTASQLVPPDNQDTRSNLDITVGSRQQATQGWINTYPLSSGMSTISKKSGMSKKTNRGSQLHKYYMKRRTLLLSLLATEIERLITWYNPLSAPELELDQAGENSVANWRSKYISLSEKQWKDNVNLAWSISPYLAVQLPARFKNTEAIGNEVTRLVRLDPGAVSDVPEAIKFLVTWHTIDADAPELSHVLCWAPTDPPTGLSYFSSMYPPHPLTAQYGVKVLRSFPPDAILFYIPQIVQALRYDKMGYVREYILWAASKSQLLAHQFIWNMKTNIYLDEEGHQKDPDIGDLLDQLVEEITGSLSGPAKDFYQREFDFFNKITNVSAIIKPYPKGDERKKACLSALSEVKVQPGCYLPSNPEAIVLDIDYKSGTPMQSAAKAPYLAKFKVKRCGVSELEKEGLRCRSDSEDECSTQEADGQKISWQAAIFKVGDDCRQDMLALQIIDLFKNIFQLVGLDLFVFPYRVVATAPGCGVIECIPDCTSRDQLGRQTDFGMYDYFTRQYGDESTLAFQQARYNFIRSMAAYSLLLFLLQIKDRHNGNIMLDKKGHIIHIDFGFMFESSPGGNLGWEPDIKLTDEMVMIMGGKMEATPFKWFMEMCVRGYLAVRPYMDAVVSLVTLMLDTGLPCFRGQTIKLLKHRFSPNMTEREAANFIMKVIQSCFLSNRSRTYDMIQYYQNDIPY

Experiments:
Experiment in all cases: number of time points (of 5) at which kinase-Nluc abundance scored as decreased, DMSO-normalised (count); higher = more persistent destabilization
Conditions in all cases: K562; 2-18 h
LMTK2 = LMTK2 (UniProt Q8IWU2)
LYN = LYN (UniProt P07948)
MAP2K1 = MAP2K1 (UniProt Q02750)
MAP2K2 = MAP2K2 (UniProt P36507)
MAP4K2 = MAP4K2 (UniProt Q12851)
MAPK1 = MAPK1 (UniProt P28482)
MAPK4 = MAPK4 (UniProt P31152)
MAPKAPK2 = MAPKAPK2 (UniProt P49137)
MKNK1 = MKNK1 (UniProt Q9BUB5)
NTRK2 = NTRK2 (UniProt Q16620)
NTRK3 = NTRK3 (UniProt Q16288)
PAK4 = PAK4 (UniProt O96013)
PBK = PBK (UniProt Q96KB5)
PDGFRB = PDGFRB (UniProt P09619)
PDK1 = PDK1 (UniProt Q15118)
PIK4CA = PIK4CA (UniProt P42356)
PIK4CB = PIK4CB (UniProt Q9UBF8)
PLK1 = PLK1 (UniProt P53350)
PRKAA1 = PRKAA1 (UniProt Q13131)
PDPK1 = PDPK1 (UniProt O15530)

Structure (SMILES)	number of time points (LMTK2)	number of time points (LYN)	number of time points (MAP2K1)	number of time points (MAP2K2)	number of time points (MAP4K2)	number of time points (MAPK1)	number of time points (MAPK4)	number of time points (MAPKAPK2)	number of time points (MKNK1)	number of time points (NTRK2)	number of time points (NTRK3)	number of time points (PAK4)	number of time points (PBK)	number of time points (PDGFRB)	number of time points (PDK1)	number of time points (PIK4CA)	number of time points (PIK4CB)	number of time points (PLK1)	number of time points (PRKAA1)	number of time points (PDPK1)
O=C(O)/C=C(\CCc1ccc(Cl)cc1)c1ccccc1 (10 µM)	0	0	0	0	0	0	0	0	0	0	0	0	0	0	0	0	0	0	0	–
CC(=O)O/N=C1/C(c2c(O)[nH]c3cc(Br)ccc23)=Nc2ccccc21 [BIO-acetoxime] (10 µM)	0	0	0	0	0	0	0	0	0	0	0	0	0	0	0	0	0	0	0	0
CO/N=C1/C(c2c(O)[nH]c3cc(Cl)c(Cl)cc23)=Nc2ccccc21 (10 µM)	0	0	0	0	0	0	0	0	0	0	0	0	0	0	0	0	0	0	0	0
CS[C@@]1(C(=O)Nc2ccc3[nH]nc(-c4ccc(OC(C)C)nc4)c3c2)CCN(CC(=O)N2CC=C(c3ccc(-c4ncn(C)n4)cc3)CC2)C1 (2.5 µM)	0	0	0	0	0	0	0	0	0	0	0	0	0	0	0	0	0	0	0	0
COCCOc1cnc2ccn([C@H](C)c3nnc4c(F)cc(-c5cnn(C)c5)cn34)c(=O)c2c1 (10 µM)	0	0	0	0	0	0	0	0	0	0	0	0	0	0	0	0	0	0	0	0
Fc1ccc(Cl)cc1-c1nc(Nc2ccncc2)c2nccnc2n1 (10 µM)	0	0	0	0	0	0	0	0	0	0	0	0	0	0	0	0	0	0	0	0
N#C/C(=C/c1ccc(O)c(O)c1)C(=O)N1CCc2ccccc21 [Tyrphostin AG 528] (10 µM)	0	0	0	0	0	0	0	0	0	0	0	0	0	0	0	0	0	0	0	0
NC(=O)c1cnc(N[C@@H]2CCCC[C@@H]2N)nc1Nc1cccc(-n2nccn2)c1 (2.5 µM)	0	0	0	0	0	0	0	0	0	0	0	0	0	0	0	0	0	0	0	0
O=CN1CCN(c2ccc(C=C3C(=O)Nc4ccccc43)cc2)CC1 (10 µM)	0	0	0	0	0	0	0	0	0	0	0	0	0	0	0	0	0	0	0	0
CCc1cc(Nc2nccc(-c3c(-c4ccc(OC)c(C(=O)Nc5c(F)cccc5F)c4)nc4ccccn34)n2)c(OC)cc1N1CCC(N2CCN(S(C)(=O)=O)CC2)CC1 (2.5 µM)	0	0	0	0	0	0	0	0	0	0	4	0	0	0	0	0	0	0	0	0
COc1cc2nc(NC3CC3)nc(NC3CCN(C(C)C)CC3)c2cc1OC (10 µM)	0	1	0	0	0	0	0	0	0	0	0	0	0	0	0	0	0	0	0	0
Oc1ccc(-c2cnc3ccc(NCc4ccco4)nn23)cc1 [IRAK inhibitor 2] (2.5 µM)	0	0	0	0	0	0	0	0	0	0	0	0	0	0	0	0	0	0	0	0
CN1C(=O)N[C@@H](Cc2c[nH]c3c(Cl)cccc23)C1=O [Necrostatin 2 (S enantiomer)] (10 µM)	0	0	0	0	0	0	0	0	0	–	0	0	0	0	0	0	0	0	0	0
CC1=CC(=O)C(C(C)C)=C/C1=N/OC(=O)c1ccccc1C [Poloxin] (2.5 µM)	0	0	0	0	0	0	0	0	0	0	0	0	0	0	0	0	0	–	0	0
CCCCNc1ncc(C(=O)NCc2ccc(-n3ccnc3)cc2)c(NC2CCC(O)CC2)n1 (stereo not given) (10 µM)	0	0	0	0	0	0	0	0	1	1	0	0	0	0	0	0	2	0	0	0
Cc1nc(NC(=O)N2CCC[C@H]2C(N)=O)sc1-c1ccnc(C(C)(C)C(F)(F)F)c1 [Alpelisib] (2.5 µM)	0	0	0	0	0	0	0	0	0	0	0	0	0	0	0	0	0	0	0	0
Nc1nccc(Oc2ccc3c(C(=O)Nc4cccc(C(F)(F)F)c4)cccc3c2)n1 (10 µM)	1	0	0	0	0	0	0	0	3	1	0	0	0	0	0	3	4	3	0	4
NC(=O)c1ccccc1Nc1ccnc(Nc2cccc(O)c2)n1 (10 µM)	0	0	0	0	0	0	0	0	0	0	3	0	0	0	0	2	2	–	0	4
CO[C@@H]1[C@H](N(C)C(=O)c2ccccc2)C[C@H]2O[C@]1(C)n1c3ccccc3c3c4c(c5c6ccccc6n2c5c31)C(=O)NC4 [Midostaurin] (2.5 µM)	0	3	0	0	0	0	0	0	0	0	–	0	0	0	0	0	0	0	0	0
Cc1nc(Nc2cnn(C3CCNCC3)c2)nc2c1N(C)C(=O)c1cc3ccccc3cc1N2C (2.5 µM)	0	0	0	0	0	0	0	0	0	0	0	0	0	0	0	0	0	0	0	0
CCOC(=O)c1c(N2CCc3ccc(OC)cc3C2)oc(C=C2C=Nc3ncccc32)c1O (10 µM)	0	0	0	0	0	0	0	0	0	–	0	0	0	0	0	0	0	0	0	0
O=C1C=CC2=C3c4cc(O)c(O)cc4CC3(O)COC2=C1O (stereo not given) [Hematein] (10 µM)	0	0	0	0	0	0	0	0	0	–	0	0	0	0	0	0	0	0	0	0
CNCc1ccccc1Sc1cccc2ccccc12 [IFN alpha-IFNAR-IN-1 (hydrochloride)] (10 µM)	3	1	0	0	0	0	1	0	0	–	0	0	0	1	0	1	1	0	1	4
O=C(Nc1ccccc1C(=O)NC1CCCCNC1=O)c1cc2ccccc2s1 (stereo not given) (10 µM)	0	0	0	0	0	0	0	0	0	–	0	0	0	0	0	0	0	0	0	0
C=CC(=O)N1CCC(c2ccc(C(N)=O)c(-c3ccc(Oc4ccccc4)cc3)n2)CC1 [Orelabrutinib] (2.5 µM)	0	0	0	0	0	0	0	0	0	–	0	0	0	0	0	0	0	0	0	0

An excerpt from above, reduced to number of time points (NTRK2), number of time points (PDPK1) and number of time points (MAP2K1).
Structure (SMILES)	number of time points (NTRK2)	number of time points (PDPK1)	number of time points (MAP2K1)
O=CN1CCN(c2ccc(C=C3C(=O)Nc4ccccc43)cc2)CC1 (10 µM)	0	0	0
CCCCNc1ncc(C(=O)NCc2ccc(-n3ccnc3)cc2)c(NC2CCC(O)CC2)n1 (stereo not given) (10 µM)	1	0	0
